Binding data for four molecules are collected here from PMC10055685.

Amino acid sequences for entries named in this document (tags omitted). A change or cut given only in a name is not applied to a line headed by its entry. Residues count along the entry.
UniProt P35240: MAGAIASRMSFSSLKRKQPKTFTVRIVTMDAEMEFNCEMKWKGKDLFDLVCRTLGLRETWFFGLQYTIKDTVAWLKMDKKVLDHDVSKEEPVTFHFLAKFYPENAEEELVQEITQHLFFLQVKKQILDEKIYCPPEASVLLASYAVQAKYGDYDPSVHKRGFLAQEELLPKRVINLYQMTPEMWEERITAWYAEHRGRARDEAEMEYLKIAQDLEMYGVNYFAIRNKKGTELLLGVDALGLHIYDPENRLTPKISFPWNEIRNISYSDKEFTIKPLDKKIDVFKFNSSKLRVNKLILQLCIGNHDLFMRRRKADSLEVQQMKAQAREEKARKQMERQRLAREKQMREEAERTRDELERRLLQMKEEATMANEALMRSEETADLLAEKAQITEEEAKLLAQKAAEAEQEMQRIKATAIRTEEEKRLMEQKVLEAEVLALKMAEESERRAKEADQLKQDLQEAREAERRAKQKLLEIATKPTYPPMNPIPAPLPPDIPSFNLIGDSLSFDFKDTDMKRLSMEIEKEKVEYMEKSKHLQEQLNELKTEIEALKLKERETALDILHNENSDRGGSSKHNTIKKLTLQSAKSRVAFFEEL
UniProt Q14126, residues 50-1118: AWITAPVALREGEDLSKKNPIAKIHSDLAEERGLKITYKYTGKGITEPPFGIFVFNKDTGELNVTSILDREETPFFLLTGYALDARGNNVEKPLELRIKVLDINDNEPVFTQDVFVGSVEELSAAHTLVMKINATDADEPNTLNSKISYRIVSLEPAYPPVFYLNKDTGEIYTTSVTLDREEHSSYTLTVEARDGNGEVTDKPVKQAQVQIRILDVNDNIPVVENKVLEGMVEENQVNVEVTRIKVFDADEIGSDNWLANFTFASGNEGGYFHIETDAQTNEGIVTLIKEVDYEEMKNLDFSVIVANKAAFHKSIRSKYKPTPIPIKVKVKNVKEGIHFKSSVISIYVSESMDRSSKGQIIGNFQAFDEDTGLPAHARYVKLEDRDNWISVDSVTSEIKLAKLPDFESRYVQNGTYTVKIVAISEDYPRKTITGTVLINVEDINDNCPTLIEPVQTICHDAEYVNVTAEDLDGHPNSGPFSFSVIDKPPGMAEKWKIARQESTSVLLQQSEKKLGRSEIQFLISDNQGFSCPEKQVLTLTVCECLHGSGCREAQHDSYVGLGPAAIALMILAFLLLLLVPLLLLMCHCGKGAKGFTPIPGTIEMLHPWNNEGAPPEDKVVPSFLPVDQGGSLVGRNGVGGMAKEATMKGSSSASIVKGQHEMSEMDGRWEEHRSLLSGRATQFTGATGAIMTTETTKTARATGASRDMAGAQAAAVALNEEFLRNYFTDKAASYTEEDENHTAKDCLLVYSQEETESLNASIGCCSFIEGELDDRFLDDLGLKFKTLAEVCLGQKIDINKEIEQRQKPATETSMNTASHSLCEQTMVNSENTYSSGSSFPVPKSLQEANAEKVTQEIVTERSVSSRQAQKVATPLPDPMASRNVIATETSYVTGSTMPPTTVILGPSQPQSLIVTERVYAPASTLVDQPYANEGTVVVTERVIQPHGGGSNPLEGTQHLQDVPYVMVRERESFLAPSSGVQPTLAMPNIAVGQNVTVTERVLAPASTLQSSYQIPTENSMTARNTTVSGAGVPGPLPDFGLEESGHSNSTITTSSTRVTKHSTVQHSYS
UniProt P35222: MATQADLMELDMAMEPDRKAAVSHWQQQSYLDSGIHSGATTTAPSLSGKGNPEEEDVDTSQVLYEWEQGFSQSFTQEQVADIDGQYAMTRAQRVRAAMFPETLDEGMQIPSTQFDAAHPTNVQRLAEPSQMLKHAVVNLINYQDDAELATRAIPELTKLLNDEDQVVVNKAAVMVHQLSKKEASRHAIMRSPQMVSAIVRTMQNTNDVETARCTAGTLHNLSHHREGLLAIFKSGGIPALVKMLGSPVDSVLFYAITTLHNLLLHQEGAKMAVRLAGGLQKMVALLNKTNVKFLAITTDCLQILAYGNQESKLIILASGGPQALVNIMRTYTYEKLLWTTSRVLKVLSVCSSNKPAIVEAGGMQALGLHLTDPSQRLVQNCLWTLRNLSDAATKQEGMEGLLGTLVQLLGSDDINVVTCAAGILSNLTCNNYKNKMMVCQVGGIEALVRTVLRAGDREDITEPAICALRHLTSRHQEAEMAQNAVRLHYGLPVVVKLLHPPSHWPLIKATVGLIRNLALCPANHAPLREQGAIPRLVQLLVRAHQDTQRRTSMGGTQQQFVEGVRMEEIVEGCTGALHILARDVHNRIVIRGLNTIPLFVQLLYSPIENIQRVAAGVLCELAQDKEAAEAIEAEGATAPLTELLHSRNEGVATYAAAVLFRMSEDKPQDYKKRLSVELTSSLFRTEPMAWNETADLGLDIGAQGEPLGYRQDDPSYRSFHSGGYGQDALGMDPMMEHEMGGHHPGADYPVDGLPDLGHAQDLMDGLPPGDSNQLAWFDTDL
UniProt Q9Y2J4: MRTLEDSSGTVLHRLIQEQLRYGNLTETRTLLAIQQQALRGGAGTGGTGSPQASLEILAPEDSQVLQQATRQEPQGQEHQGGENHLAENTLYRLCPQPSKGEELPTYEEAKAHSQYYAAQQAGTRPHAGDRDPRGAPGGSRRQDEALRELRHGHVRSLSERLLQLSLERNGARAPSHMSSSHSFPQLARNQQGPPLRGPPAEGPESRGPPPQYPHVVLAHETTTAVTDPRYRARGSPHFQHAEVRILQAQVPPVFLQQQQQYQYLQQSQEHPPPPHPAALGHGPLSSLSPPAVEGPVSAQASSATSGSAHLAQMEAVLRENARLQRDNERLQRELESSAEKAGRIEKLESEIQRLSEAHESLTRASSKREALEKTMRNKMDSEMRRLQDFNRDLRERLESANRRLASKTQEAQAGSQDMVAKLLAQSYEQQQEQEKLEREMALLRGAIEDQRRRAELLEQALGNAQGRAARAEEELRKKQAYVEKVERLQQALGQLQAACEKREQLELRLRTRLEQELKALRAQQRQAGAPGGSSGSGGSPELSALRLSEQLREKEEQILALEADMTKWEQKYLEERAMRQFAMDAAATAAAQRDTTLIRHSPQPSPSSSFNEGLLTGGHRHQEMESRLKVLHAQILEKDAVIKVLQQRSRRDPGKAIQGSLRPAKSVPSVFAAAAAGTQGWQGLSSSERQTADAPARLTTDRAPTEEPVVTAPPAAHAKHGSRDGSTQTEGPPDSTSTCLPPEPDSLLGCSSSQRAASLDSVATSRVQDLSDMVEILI

What all share (assay): proximity labelling; APEX2 fused to Merlin in M10G cells; 0.1mg/ml doxycycline 24 hours; 0.5mM biotin-phenol 30 minutes at 37°C, 1mM H2O2 on ice for 30 seconds; streptavidin pulldown and proteomic mass spectrometry (n=3/condition)
Experiment [1] concerns the target Merlin^WT with C-terminal FLAG and APEX2 tags (Merlin^FLAG-APEX2, wildtype) (human) (UniProt P35240).
Experiment [2] concerns the target Merlin^L46R with C-terminal FLAG and APEX2 tags (human) (UniProt P35240).
The target in experiment [3] is Merlin^S13D (phospho-mimetic) FLAG-APEX2 construct (human) (UniProt P35240).
For experiment [4], the target named is Merlin^S13A (unphosphorylatable) FLAG-APEX2 construct (human) (UniProt P35240).
The target in experiment [5] is Merlin^A211D with C-terminal FLAG and APEX2 tags (human) (UniProt P35240).
Experiment [6] deals with Merlin^WT with C-terminal FLAG and APEX2 tags (Merlin^FLAG-APEX2, wildtype) (human) (UniProt P35240). This is another data set of the same source.

Read-outs that look alike come from different tables or passages of the source. Results are given in words; binding and its absence hold for the method and conditions named. Binding seen in cells or lysates may run through a third protein. Here binding means that the protein was enriched with, or labelled near, the bait; the list need not be complete. For some assays here: No binding means not detected with the bait.

Take DSG2 (from UniProt Q14126 50-1118): the binding result in experiment [1] is “binds”.
For β-catenin (from UniProt P35222 1-781), the binding result in experiment [2] is recorded as “no binding”; in experiment [1] it was “binds”; in experiment [3], “binds”; in experiment [4], “no binding”; in experiment [5] it was “binds”.
As to AMOTL2 (from UniProt Q9Y2J4 1-779), the binding entry in experiment [1] is on record as “binds”.

B1: AMOTL1 (protein, UniProt Q8IY63 1-956)
chain: MWRAKLRRGTCEPAVKGSPSACYSPSSPVQVLEDSTYFSPDFQLYSGRHETSALTVEATSSIREKVVEDPLCNFHSPNFLRISEVEMRGSEDAAAGTVLQRLIQEQLRYGTPTENMNLLAIQHQATGSAGPAHPTNNFSSTENLTQEDPQMVYQSARQEPQGQEHQVDNTVMEKQVRSTQPQQNNEELPTYEEAKAQSQFFRGQQQQQQQQGAVGHGYYMAGGTSQKSRTEGRPTVNRANSGQAHKDEALKELKQGHVRSLSERIMQLSLERNGAKQHLPGSGNGKGFKVGGGPSPAQPAGKVLDPRGPPPEYPFKTKQMMSPVSKTQEHGLFYGDQHPGMLHEMVKPYPAPQPVRTDVAVLRYQPPPEYGVTSRPCQLPFPSTMQQHSPMSSQTSSASGPLHSVSLPLPLPMALGAPQPPPAASPSQQLGPDAFAIVERAQQMVEILTEENRVLHQELQGYYDNADKLHKFEKELQRISEAYESLVKSTTKRESLDKAMRNKLEGEIRRLHDFNRDLRDRLETANRQLSSREYEGHEDKAAEGHYASQNKEFLKEKEKLEMELAAVRTASEDHRRHIEILDQALSNAQARVIKLEEELREKQAYVEKVEKLQQALTQLQSACEKREQMERRLRTWLERELDALRTQQKHGNGQPANMPEYNAPALLELVREKEERILALEADMTKWEQKYLEESTIRHFAMNAAATAAAERDTTIINHSRNGSYGESSLEAHIWQEEEEVVQANRRCQDMEYTIKNLHAKIIEKDAMIKVLQQRSRKDAGKTDSSSLRPARSVPSIAAATGTHSRQTSLTSSQLAEEKKEEKTWKGSIGLLLGKEHHEHASAPLLPPPPTSALSSIASTTAASSAHAKTGSKDSSTQTDKSAELFWPSMASLPSRGRLSTTPAHSPVLKHPAAKGTAEKLENSPGHGKSPDHRGRVSSLLHKPEFPDGEMMEVLI
Take B1: in experiment [6], the binding result is given as “binds”.
